Assay results from the supplement of paper PMC12823440, “Inhibitors supercharge kinase turnover through native proteolytic circuits” (Nature, 2025).
Some of the results follow. The calls rarely recur for the same compound in another form.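 Kinases were expressed as nanoluciferase fusions in K562 cells and luminescence was read every 4 h between 2 and 18 h as percent of control, DMSO set to 100% and a positive control to 0%. A time point counts as decreased when the signal drops significantly (2 sigma). The hit call is the authors' own, does not follow from the count of time points alone, and its rule is not shown.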

The chains behind the UniProt entries cited, without tags or fusion partners. Where a name states a change or a piece, a line headed by the entry shows the natural chain unless it says otherwise.
UniProt Q9Y616: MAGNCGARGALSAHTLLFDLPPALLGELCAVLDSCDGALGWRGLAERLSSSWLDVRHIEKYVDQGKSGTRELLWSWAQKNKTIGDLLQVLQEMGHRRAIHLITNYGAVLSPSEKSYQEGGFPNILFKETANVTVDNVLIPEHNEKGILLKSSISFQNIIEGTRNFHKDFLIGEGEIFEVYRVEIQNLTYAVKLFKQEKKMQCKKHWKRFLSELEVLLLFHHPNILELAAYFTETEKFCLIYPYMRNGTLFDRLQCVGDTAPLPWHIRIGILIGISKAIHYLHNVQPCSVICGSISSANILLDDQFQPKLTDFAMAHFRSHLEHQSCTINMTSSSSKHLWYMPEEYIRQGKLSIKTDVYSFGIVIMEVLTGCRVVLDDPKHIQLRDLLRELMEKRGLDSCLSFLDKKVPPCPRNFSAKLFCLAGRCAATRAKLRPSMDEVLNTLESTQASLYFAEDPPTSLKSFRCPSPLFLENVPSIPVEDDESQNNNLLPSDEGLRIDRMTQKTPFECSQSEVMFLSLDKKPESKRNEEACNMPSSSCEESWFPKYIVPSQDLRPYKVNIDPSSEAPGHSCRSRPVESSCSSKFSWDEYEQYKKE
UniProt P23458: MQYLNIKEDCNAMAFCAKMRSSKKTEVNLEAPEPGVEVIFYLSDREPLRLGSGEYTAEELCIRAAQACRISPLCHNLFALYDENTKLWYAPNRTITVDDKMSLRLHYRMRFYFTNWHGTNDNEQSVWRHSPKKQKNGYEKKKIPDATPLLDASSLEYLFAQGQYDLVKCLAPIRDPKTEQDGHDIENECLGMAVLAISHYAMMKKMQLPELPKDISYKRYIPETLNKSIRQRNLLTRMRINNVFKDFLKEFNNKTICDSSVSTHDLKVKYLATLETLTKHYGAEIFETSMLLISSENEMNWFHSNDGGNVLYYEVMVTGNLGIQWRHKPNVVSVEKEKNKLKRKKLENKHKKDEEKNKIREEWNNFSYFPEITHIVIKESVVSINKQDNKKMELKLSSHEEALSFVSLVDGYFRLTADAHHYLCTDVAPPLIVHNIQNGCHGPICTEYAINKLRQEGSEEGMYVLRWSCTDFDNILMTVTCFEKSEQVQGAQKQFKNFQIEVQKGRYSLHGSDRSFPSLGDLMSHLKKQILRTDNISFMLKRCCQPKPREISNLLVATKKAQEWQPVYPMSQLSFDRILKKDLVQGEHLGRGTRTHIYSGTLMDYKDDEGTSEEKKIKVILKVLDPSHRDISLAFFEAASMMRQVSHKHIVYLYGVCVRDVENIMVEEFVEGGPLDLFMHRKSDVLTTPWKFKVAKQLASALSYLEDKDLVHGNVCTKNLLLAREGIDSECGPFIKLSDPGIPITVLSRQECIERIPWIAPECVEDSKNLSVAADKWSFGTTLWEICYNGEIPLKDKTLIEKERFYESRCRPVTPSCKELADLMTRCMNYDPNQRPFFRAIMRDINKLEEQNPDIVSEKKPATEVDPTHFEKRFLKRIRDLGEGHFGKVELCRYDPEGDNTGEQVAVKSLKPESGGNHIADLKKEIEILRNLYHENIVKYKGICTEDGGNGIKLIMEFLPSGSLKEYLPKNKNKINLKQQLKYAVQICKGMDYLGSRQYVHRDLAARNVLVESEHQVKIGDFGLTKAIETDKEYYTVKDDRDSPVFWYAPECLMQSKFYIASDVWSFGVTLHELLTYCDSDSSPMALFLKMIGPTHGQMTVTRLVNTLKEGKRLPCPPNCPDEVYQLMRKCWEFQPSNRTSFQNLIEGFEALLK
UniProt P06239: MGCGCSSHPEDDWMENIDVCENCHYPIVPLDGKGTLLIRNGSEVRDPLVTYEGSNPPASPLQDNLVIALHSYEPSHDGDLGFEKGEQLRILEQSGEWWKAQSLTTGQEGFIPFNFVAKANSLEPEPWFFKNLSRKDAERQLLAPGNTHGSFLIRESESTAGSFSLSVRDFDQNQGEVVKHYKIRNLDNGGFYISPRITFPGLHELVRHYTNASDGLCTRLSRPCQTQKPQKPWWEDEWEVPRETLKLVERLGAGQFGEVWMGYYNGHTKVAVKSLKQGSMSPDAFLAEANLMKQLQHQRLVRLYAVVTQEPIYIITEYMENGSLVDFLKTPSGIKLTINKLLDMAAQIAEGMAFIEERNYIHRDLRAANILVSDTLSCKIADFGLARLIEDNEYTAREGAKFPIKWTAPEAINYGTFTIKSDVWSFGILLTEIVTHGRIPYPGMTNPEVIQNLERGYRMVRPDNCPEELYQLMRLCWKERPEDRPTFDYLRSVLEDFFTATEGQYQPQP
UniProt P53671: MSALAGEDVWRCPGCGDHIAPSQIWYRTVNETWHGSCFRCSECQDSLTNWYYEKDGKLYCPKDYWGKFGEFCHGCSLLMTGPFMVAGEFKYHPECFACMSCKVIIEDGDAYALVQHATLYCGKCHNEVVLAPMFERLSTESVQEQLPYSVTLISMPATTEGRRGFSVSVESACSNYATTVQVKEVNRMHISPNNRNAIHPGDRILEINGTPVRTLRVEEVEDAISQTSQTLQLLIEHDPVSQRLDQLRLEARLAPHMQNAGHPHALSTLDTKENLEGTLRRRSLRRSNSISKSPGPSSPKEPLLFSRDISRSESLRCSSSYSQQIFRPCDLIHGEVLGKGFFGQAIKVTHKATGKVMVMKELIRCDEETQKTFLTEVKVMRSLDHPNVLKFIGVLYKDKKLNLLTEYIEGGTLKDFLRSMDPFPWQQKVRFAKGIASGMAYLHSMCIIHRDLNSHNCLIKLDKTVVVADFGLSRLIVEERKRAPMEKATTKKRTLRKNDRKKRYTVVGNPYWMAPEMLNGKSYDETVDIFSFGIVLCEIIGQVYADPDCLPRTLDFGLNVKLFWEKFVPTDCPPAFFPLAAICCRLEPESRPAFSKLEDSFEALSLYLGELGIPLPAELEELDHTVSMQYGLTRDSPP
UniProt P07948: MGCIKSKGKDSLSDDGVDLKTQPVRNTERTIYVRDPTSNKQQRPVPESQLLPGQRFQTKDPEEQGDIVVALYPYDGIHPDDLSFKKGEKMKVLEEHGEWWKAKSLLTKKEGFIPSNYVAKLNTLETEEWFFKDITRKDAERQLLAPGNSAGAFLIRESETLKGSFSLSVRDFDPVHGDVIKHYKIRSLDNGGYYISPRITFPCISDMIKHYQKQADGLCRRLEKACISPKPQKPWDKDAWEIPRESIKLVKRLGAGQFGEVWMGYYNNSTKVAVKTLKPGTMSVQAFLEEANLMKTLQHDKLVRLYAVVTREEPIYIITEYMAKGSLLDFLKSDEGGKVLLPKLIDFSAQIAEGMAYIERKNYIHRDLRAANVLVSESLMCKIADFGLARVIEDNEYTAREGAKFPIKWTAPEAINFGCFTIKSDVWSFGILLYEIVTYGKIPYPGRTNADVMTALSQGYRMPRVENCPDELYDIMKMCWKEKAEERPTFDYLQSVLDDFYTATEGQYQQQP
UniProt P28482, whole entry: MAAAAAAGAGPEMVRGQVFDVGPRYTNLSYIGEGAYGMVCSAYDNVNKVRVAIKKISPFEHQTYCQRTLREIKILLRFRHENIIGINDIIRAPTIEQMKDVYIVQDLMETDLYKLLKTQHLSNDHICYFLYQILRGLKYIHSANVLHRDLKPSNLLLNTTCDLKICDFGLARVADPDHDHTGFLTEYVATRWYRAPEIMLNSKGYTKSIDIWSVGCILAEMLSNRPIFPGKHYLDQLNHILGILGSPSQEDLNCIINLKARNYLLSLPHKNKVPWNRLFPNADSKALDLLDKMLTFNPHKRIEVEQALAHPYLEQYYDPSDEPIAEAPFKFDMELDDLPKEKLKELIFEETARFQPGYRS
UniProt P49137, whole entry, looked up: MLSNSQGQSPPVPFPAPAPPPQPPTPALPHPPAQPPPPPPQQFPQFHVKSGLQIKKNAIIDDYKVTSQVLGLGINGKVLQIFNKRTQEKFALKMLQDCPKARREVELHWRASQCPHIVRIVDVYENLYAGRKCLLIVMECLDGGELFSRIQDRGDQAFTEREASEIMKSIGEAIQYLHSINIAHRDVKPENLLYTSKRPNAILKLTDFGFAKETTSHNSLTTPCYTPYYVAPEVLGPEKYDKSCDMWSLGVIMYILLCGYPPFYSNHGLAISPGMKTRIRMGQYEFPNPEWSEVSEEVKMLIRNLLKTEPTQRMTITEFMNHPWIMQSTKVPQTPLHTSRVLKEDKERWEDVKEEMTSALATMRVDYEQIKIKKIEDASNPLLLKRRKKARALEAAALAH
UniProt Q9BUB5: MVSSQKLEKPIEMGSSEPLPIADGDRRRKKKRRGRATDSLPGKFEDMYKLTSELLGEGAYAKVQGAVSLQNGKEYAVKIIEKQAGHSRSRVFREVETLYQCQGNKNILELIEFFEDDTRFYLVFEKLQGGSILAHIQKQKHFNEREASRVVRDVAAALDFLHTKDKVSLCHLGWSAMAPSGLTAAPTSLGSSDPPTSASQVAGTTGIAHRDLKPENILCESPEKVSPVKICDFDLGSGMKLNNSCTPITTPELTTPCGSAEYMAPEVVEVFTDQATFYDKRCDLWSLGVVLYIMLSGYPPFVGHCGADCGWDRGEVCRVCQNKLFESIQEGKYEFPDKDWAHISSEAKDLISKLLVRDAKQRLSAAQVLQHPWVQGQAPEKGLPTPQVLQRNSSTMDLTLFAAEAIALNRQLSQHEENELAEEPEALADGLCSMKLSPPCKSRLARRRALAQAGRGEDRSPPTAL
UniProt Q96KB5: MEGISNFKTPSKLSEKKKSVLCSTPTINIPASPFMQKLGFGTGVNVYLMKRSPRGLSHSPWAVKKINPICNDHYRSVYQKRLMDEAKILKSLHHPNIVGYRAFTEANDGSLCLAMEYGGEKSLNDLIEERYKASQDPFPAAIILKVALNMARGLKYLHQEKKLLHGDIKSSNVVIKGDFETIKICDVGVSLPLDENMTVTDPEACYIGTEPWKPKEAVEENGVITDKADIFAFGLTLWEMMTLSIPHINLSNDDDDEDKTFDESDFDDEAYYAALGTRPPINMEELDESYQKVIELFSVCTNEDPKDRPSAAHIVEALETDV
UniProt P09619, whole entry: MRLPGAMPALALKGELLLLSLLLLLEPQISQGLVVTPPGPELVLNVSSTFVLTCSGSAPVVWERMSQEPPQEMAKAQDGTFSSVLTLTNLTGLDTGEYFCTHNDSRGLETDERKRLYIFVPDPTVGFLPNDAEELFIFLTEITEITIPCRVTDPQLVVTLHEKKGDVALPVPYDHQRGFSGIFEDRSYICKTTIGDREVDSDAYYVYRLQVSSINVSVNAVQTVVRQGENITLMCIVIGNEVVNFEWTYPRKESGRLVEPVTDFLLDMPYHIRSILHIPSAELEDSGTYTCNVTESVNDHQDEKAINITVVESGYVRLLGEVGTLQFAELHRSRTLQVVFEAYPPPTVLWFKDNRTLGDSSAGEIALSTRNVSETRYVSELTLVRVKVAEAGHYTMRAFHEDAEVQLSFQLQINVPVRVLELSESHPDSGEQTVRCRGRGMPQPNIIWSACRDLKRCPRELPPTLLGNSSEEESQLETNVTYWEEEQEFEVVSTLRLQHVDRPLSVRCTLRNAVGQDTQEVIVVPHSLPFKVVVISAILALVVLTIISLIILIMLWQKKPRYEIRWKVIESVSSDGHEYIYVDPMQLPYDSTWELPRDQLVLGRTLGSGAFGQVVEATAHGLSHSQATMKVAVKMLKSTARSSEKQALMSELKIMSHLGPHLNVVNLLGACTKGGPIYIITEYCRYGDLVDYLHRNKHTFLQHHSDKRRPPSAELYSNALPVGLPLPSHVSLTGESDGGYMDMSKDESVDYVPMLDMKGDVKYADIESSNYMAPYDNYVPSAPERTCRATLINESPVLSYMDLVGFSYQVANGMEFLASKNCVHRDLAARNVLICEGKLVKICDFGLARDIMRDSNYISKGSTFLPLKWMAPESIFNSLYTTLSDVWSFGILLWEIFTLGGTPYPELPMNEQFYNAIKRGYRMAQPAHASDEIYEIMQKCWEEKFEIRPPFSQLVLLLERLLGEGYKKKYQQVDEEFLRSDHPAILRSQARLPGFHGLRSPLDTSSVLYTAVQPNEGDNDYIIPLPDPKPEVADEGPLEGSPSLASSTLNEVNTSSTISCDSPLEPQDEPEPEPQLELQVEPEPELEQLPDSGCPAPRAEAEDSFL
UniProt Q15118, whole entry, looked up: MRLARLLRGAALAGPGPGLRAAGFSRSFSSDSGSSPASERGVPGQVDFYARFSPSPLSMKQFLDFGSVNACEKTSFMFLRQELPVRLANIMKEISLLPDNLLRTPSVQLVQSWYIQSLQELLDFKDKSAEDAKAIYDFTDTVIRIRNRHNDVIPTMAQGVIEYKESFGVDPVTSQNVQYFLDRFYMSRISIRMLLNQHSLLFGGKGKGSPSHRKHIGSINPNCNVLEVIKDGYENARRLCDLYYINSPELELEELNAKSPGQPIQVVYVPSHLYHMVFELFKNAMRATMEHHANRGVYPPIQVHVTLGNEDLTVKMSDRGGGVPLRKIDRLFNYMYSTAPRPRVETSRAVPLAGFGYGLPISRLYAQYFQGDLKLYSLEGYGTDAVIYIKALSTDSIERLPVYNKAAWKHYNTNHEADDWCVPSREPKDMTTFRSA

Experiments:
Assay in all cases: kinase-Nluc reporter destabilization hit call (1 = scored as downregulated) (binary); higher = compound decreases kinase abundance
Details in all cases: K562; 2-18 h
IRAK3 = IRAK3 (UniProt Q9Y616)
JAK1 = JAK1 (UniProt P23458)
LCK = LCK (UniProt P06239)
LIMK1 = LIMK1 (UniProt P53667)
LIMK2 = LIMK2 (UniProt P53671)
LMTK2 = LMTK2 (UniProt Q8IWU2)
LYN = LYN (UniProt P07948)
MAP2K1 = MAP2K1 (UniProt Q02750)
MAP2K2 = MAP2K2 (UniProt P36507)
MAP4K2 = MAP4K2 (UniProt Q12851)
MAPK1 = MAPK1 (UniProt P28482)
MAPK4 = MAPK4 (UniProt P31152)
MAPKAPK2 = MAPKAPK2 (UniProt P49137)
MKNK1 = MKNK1 (UniProt Q9BUB5)
NTRK2 = NTRK2 (UniProt Q16620)
NTRK3 = NTRK3 (UniProt Q16288)
PAK4 = PAK4 (UniProt O96013)
PBK = PBK (UniProt Q96KB5)
PDGFRB = PDGFRB (UniProt P09619)
PDK1 = PDK1 (UniProt Q15118)

Measured: kinase-Nluc reporter destabilization hit call

COc1cc(N2CCN(C)CC2)ccc1Nc1ncc2c(n1)N(C1CCC1)C(=O)N(c1c(C)cccc1C)C2 (2.5 µM)
inactive: IRAK3 = 0 | JAK1 = 0 | LCK 0 | LIMK1 = 0 | LIMK2 = 0 | LMTK2 = 0 | LYN 0 | MAP2K1 = 0 | MAP2K2 = 0 | MAP4K2 = 0 | MAPK1 = 0 | MAPK4 = 0 | MAPKAPK2 = 0 | MKNK1 = 0 | NTRK2 = 0 | NTRK3 = 0 | PAK4 = 0 | PBK 0 | PDGFRB 0 | PDK1 = 0

CS(=O)(=O)c1ccc(-c2cnc(N)c(C(=O)Nc3ccccc3)n2)cc1 (10 µM)
inactive: IRAK3 = 0 | JAK1 = 0 | LCK 0 | LIMK1 = 0 | LIMK2 = 0 | LMTK2 = 0 | LYN 0 | MAP2K1 = 0 | MAP2K2 = 0 | MAP4K2 = 0 | MAPK1 = 0 | MAPK4 = 0 | MAPKAPK2 = 0 | MKNK1 = 0 | NTRK2 = 0 | NTRK3 = 0 | PAK4 = 0 | PBK 0 | PDGFRB 0 | PDK1 = 0

COc1ccc(C(=O)Nc2sc3c(c2C(N)=O)CCCC3)cc1OC (10 µM)
inactive: IRAK3 = 0 | JAK1 = 0 | LCK 0 | LIMK1 = 0 | LIMK2 = 0 | LMTK2 = 0 | LYN 0 | MAP2K1 = 0 | MAP2K2 = 0 | MAP4K2 = 0 | MAPK1 = 0 | MAPK4 = 0 | MAPKAPK2 = 0 | MKNK1 = 0 | NTRK2 = 0 | NTRK3 = 0 | PAK4 = 0 | PBK 0 | PDGFRB 0 | PDK1 = 0

CCn1c(=O)c(-c2ccc(-c3cncc(C)n3)cc2Cl)cc2cnc(NCCC3CCN(C)CC3)nc21 (10 µM)
inactive: IRAK3 = 0 | JAK1 = 0 | LCK 0 | LIMK1 = 0 | LIMK2 = 0 | LMTK2 = 0 | LYN 0 | MAP2K1 = 0 | MAP2K2 = 0 | MAP4K2 = 0 | MAPK1 = 0 | MAPK4 = 0 | MAPKAPK2 = 0 | MKNK1 = 0 | NTRK2 = 0 | NTRK3 = 0 | PAK4 = 0 | PBK 0 | PDGFRB 0 | PDK1 = 0

CC[C@@]1(c2ccccc2)C2=C(CC(C)(C)CC2=O)Nc2[nH]ncc21 (10 µM)
inactive: IRAK3 = 0 | JAK1 = 0 | LCK 0 | LIMK1 = 0 | LIMK2 = 0 | LMTK2 = 0 | LYN 0 | MAP2K1 = 0 | MAP2K2 = 0 | MAP4K2 = 0 | MAPK1 = 0 | MAPK4 = 0 | MAPKAPK2 = 0 | MKNK1 = 0 | NTRK2 = 0 | NTRK3 = 0 | PAK4 = 0 | PBK 0 | PDGFRB 0 | PDK1 = 0

Cc1cc(NC(=O)c2cccc(NC(=O)/C=C/CN(C)C)c2)ccc1Nc1nccc(-c2cccnc2)n1 (10 µM)
inactive: IRAK3 = 0 | JAK1 = 0 | LCK 0 | LIMK1 = 0 | LIMK2 = 0 | LMTK2 = 0 | LYN 0 | MAP2K1 = 0 | MAP2K2 = 0 | MAP4K2 = 0 | MAPK1 = 0 | MAPK4 = 0 | MAPKAPK2 = 0 | MKNK1 = 0 | NTRK2 = 0 | NTRK3 = 0 | PAK4 = 0 | PBK 0 | PDGFRB 0 | PDK1 = 0

Cc1cc(-c2cc(OC(=O)c3ccccc3)ccc2Cl)cc2nnc(Nc3ccc(OCCN4CCCC4)cc3)nc12 (0.5 µM)
inactive: IRAK3 = 0 | JAK1 = 0 | LCK 0 | LIMK1 = 0 | LIMK2 = 0 | LMTK2 = 0 | LYN 0 | MAP2K1 = 0 | MAP2K2 = 0 | MAP4K2 = 0 | MAPK1 = 0 | MAPK4 = 0 | MAPKAPK2 = 0 | MKNK1 = 0 | NTRK2 = 0 | NTRK3 = 0 | PAK4 = 0 | PBK 0 | PDGFRB 0 | PDK1 = 0

CC(C)=CCC[C@](C)(O[C@@H]1O[C@H](CO)[C@@H](O)[C@H](O)[C@H]1O)[C@H]1CC[C@]2(C)[C@@H]1[C@H](O)C[C@@H]1[C@@]3(C)CC[C@H](O)C(C)(C)[C@@H]3[C@@H](O[C@@H]3O[C@H](CO)[C@@H](O)[C@H](O)[C@H]3O[C@@H]3O[C@@H](C)[C@H](O)[C@@H](O)[C@H]3O)C[C@]12C [Ginsenoside Re] (10 µM)
inactive: IRAK3 = 0 | JAK1 = 0 | LCK 0 | LIMK1 = 0 | LIMK2 = 0 | LMTK2 = 0 | LYN 0 | MAP2K1 = 0 | MAP2K2 = 0 | MAP4K2 = 0 | MAPK1 = 0 | MAPK4 = 0 | MAPKAPK2 = 0 | MKNK1 = 0 | NTRK2 = 0 | NTRK3 = 0 | PAK4 = 0 | PBK 0 | PDGFRB 0 | PDK1 = 0

COCCO[C@@H]1[C@H](O)[C@@H](CO)O[C@H]1n1cnc2c(=O)[nH]c(N)nc21 [2′-O-(2-Methoxyethyl)guanosine] (10 µM)
inactive: IRAK3 = 0 | JAK1 = 0 | LCK 0 | LIMK1 = 0 | LIMK2 = 0 | LMTK2 = 0 | LYN 0 | MAP2K1 = 0 | MAP2K2 = 0 | MAP4K2 = 0 | MAPK1 = 0 | MAPK4 = 0 | MAPKAPK2 = 0 | MKNK1 = 0 | NTRK2 = 0 | NTRK3 = 0 | PAK4 = 0 | PBK 0 | PDGFRB 0 | PDK1 = 0

CCN(CC)S(=O)(=O)c1ccc(OC)c(N2CCN(C(=O)c3ccc(F)cc3C(F)(F)F)CC2)c1 (10 µM)
inactive: IRAK3 = 0 | JAK1 = 0 | LCK 0 | LIMK1 = 0 | LIMK2 = 0 | LMTK2 = 0 | LYN 0 | MAP2K1 = 0 | MAP2K2 = 0 | MAP4K2 = 0 | MAPK1 = 0 | MAPK4 = 0 | MAPKAPK2 = 0 | MKNK1 = 0 | NTRK2 = 0 | NTRK3 = 0 | PAK4 = 0 | PBK 0 | PDGFRB 0 | PDK1 = 0

Nc1ncc(-c2cccc(N3CCNCC3)c2)cc1C(=O)Nc1ccncc1 [PKC-iota inhibitor 1] (10 µM)
inactive: IRAK3 = 0 | JAK1 = 0 | LCK 0 | LIMK1 = 0 | LIMK2 = 0 | LMTK2 = 0 | LYN 0 | MAP2K1 = 0 | MAP2K2 = 0 | MAP4K2 = 0 | MAPK1 = 0 | MAPK4 = 0 | MAPKAPK2 = 0 | MKNK1 = 0 | NTRK2 = 0 | NTRK3 = 0 | PAK4 = 0 | PBK 0 | PDGFRB 0 | PDK1 = 0

CNCc1ccccc1-c1csc([C@@H](C)Nc2nc(C)nc3cc(OC)c(OC)cc23)c1 (2.5 µM)
inactive: IRAK3 = 0 | JAK1 = 0 | LCK 0 | LIMK1 = 0 | LIMK2 = 0 | LMTK2 = 0 | LYN 0 | MAP2K1 = 0 | MAP2K2 = 0 | MAP4K2 = 0 | MAPK1 = 0 | MAPK4 = 0 | MAPKAPK2 = 0 | MKNK1 = 0 | NTRK2 = 0 | NTRK3 = 0 | PAK4 = 0 | PBK 0 | PDGFRB 0 | PDK1 = 0

COc1cc(N2CCC(N3CCN(C)CC3)CC2)ccc1Nc1ncc(Cl)c(Nc2ccccc2P(C)(C)=O)n1 [Brigatinib] (2 µM)
inactive: IRAK3 = 0 | JAK1 = 0 | LCK 0 | LIMK1 = 0 | LIMK2 = 0 | LMTK2 = 0 | LYN 0 | MAP2K1 = 0 | MAP2K2 = 0 | MAP4K2 = 0 | MAPK1 = 0 | MAPK4 = 0 | MAPKAPK2 = 0 | MKNK1 = 0 | NTRK2 = 0 | NTRK3 = 0 | PAK4 = 0 | PBK 0 | PDGFRB 0 | PDK1 = 0

O=C1c2ccc(Nc3ccc(F)cc3F)cc2CCc2ccc(OC[C@H](O)CO)cc21 [Skepinone-L] (2.5 µM)
inactive: IRAK3 = 0 | JAK1 = 0 | LCK 0 | LIMK1 = 0 | LIMK2 = 0 | LMTK2 = 0 | LYN 0 | MAP2K1 = 0 | MAP2K2 = 0 | MAP4K2 = 0 | MAPK1 = 0 | MAPK4 = 0 | MAPKAPK2 = 0 | MKNK1 = 0 | NTRK2 = 0 | NTRK3 = 0 | PAK4 = 0 | PBK 0 | PDGFRB 0 | PDK1 = 0

CC1CCc2nc(N)c(C#N)c(-c3cccnc3)c2C1 (stereo not given) (10 µM)
inactive: IRAK3 = 0 | JAK1 = 0 | LCK 0 | LIMK1 = 0 | LIMK2 = 0 | LMTK2 = 0 | LYN 0 | MAP2K1 = 0 | MAP2K2 = 0 | MAP4K2 = 0 | MAPK1 = 0 | MAPK4 = 0 | MAPKAPK2 = 0 | MKNK1 = 0 | NTRK2 = 0 | NTRK3 = 0 | PAK4 = 0 | PBK 0 | PDGFRB 0 | PDK1 = 0

No new results follow: two of the compounds above.
CNCc1ccccc1-c1csc([C@@H](C)Nc2nc(C)nc3cc(OC)c(OC)cc23)c1 (2.5 µM)
inactive: IRAK3 = 0 | JAK1 = 0 | LCK 0 | LIMK1 = 0 | LIMK2 = 0 | LMTK2 = 0 | LYN 0 | MAP2K1 = 0 | MAP2K2 = 0 | MAP4K2 = 0 | MAPK1 = 0 | MAPK4 = 0 | MAPKAPK2 = 0 | MKNK1 = 0 | NTRK2 = 0 | NTRK3 = 0 | PAK4 = 0 | PBK 0 | PDGFRB 0 | PDK1 = 0

COc1cc(N2CCC(N3CCN(C)CC3)CC2)ccc1Nc1ncc(Cl)c(Nc2ccccc2P(C)(C)=O)n1 [Brigatinib] (2 µM)
inactive: IRAK3 = 0 | JAK1 = 0 | LCK 0 | LIMK1 = 0 | LIMK2 = 0 | LMTK2 = 0 | LYN 0 | MAP2K1 = 0 | MAP2K2 = 0 | MAP4K2 = 0 | MAPK1 = 0 | MAPK4 = 0 | MAPKAPK2 = 0 | MKNK1 = 0 | NTRK2 = 0 | NTRK3 = 0 | PAK4 = 0 | PBK 0 | PDGFRB 0 | PDK1 = 0

Later entries

COc1ccc(CC(=O)Nc2nc3c(s2)CCc2ccccc2-3)cc1OC (10 µM)
inactive: IRAK3 = 0 | JAK1 = 0 | LCK 0 | LIMK1 = 0 | LIMK2 = 0 | LMTK2 = 0 | LYN 0 | MAP2K1 = 0 | MAP2K2 = 0 | MAP4K2 = 0 | MAPK1 = 0 | MAPK4 = 0 | MAPKAPK2 = 0 | MKNK1 = 0 | NTRK2 = 0 | NTRK3 = 0 | PAK4 = 0 | PBK 0 | PDGFRB 0 | PDK1 = 0

Cn1cnc(-c2cc3nccc(Oc4ccc(NC(=S)NC(=O)Cc5ccccc5)cc4F)c3s2)c1 [MGCD-265 analog] (10 µM)
inactive: IRAK3 = 0 | JAK1 = 0 | LCK 0 | LIMK1 = 0 | LIMK2 = 0 | LMTK2 = 0 | LYN 0 | MAP2K1 = 0 | MAP2K2 = 0 | MAP4K2 = 0 | MAPK1 = 0 | MAPK4 = 0 | MAPKAPK2 = 0 | MKNK1 = 0 | NTRK2 = 0 | NTRK3 = 0 | PAK4 = 0 | PBK 0 | PDGFRB 0 | PDK1 = 0

C=C(C)C(=O)Nc1cccc(-c2ncnc3[nH]cc(C(=O)OCC)c23)c1 (10 µM)
inactive: IRAK3 = 0 | JAK1 = 0 | LCK 0 | LIMK1 = 0 | LIMK2 = 0 | LMTK2 = 0 | LYN 0 | MAP2K1 = 0 | MAP2K2 = 0 | MAP4K2 = 0 | MAPK1 = 0 | MAPK4 = 0 | MAPKAPK2 = 0 | MKNK1 = 0 | NTRK2 = 0 | NTRK3 = 0 | PAK4 = 0 | PBK 0 | PDGFRB 0 | PDK1 = 0
